Laboratory results as given in PubChem BioAssay AID504847 (National Center for Advancing Translational Sciences (NCATS), 2011).
Where “and” joins values, the source holds several entries; their conditions need not be identical. Equal entries are not always repeated. In all, about 400,000 compounds went through this assay and about 3,700 (0.93%) were called active. Inconclusive means that the source gave no clear call. Such entries were picked first, then a sample of the others. Calls follow the shape of the dose curve; as a rule, active = well fitted inhibition curve with a large enough effect; inconclusive = small, poorly fitted or top-dose-only effect, or another doubt; inactive = no such curve, though single readings can be large or run the other way. Potencies beside an inconclusive call are fits to weak or partial responses and may not hold up. Some compounds were tested as several samples or in several runs, with calls that do not always agree.

Chains of the proteins cited; added tags and fusions are not shown. Lines headed by an entry give the natural chain unless they say otherwise; changes in a name come on top.
UniProt P11473: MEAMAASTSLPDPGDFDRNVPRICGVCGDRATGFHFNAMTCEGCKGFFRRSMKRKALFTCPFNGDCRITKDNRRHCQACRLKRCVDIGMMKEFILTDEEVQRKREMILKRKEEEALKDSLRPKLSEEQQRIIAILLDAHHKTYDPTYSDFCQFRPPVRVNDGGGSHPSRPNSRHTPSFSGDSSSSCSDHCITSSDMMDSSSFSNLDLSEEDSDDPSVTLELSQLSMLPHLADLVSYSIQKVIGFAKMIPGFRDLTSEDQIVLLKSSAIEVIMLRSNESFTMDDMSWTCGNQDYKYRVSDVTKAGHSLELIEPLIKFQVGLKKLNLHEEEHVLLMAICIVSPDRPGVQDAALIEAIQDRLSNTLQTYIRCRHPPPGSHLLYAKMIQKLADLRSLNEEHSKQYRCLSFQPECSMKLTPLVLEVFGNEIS

Biological target: Vitamin D3 receptor (Homo sapiens) (UniProt P11473)
Test: Inhibitors of the vitamin D receptor (VDR): qHTS
Conditions: VDR-SRC2-3 peptide fluorescence polarization, 2 h; max response, negative = inhibition: active compounds read low
In short: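 Measured by FP: displacement of SRC2-3 coactivator peptide from VDR by library compounds, following a two-hour ambient incubation.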
% is scaled to controls: 0 for no effect and ±100 for the full control effect; potency is read from the fitted curve at half-maximal effect.

Potency, inconclusive:
C=C1C(=O)C=C[C@]2(C)C[C@@H]3OC(=O)[C@](C)(O)[C@H]3C[C@@H]12 89.1 µM [inhibitor, partial curve, poor fit]
CN(C)c1ccc(-c2cncnc2NCc2cccnc2)cc1 79.4 µM [inhibitor, single point]
C/C(CC(=O)NC12CC3CC(CC(C3)C1)C2)=N\NC(=O)c1ccc(F)cc1 100 µM [inhibitor, single point]
NS(=O)(=O)c1ccc(NC(=S)NC2CCCCC2)cc1 79.4 µM [inhibitor, partial curve]
CCc1ccc2c(c1)C(NC(C)=O)C(=O)N2CCN1CCOCC1 (configuration not stated) 89.1 µM [inhibitor, single point]
CCOC(=O)C[n+]1c(C)sc2ccc(OC)cc21 3.16 µM [inhibitor, full curve, poor fit]
CC[C@@]1(c2ccccc2C)C(=O)N(C(=O)OC)N1C(=O)OC 89.1 µM [inhibitor, partial curve]
CC1=C(C(=O)O)N2C(=O)C(NC(=O)C(N)c3ccc(O)cc3)C2SC1 (configuration not stated) 89.1 µM [inhibitor, single point]
Cc1ccc(CN2C(=O)C(O)(CC(=O)c3ccc(C)cc3)c3ccccc32)cc1 (configuration not stated) 89.1 µM [inhibitor, partial curve, poor fit]
O=C(/C=C/c1ccc2c(c1)OCCCO2)c1ccccc1O 50.1 µM [inhibitor, partial curve, poor fit]
O=C(CSc1nncc(=O)[nH]1)Nc1cccc([N+](=O)[O-])c1 89.1 µM [inhibitor, single point]
COc1ccc(C(=O)/C=C/c2ccc(OCc3ccccc3)cc2)cc1CSCC(=O)O 20 µM [inhibitor, full curve, poor fit]
O=C1CSC(=S)N1N=Cc1ccc2c(c1)OCO2 100 µM [inhibitor, single point]
CCOC(=O)[C@@H]1[C@H]2COc3cc(OC)ccc3[C@@H]2N2C(=O)N(c3cccc(F)c3)C(=O)[C@]12C 100 µM [inhibitor, single point]
Cc1ccc(S(=O)(=O)N2CCC(C(=O)Nc3ccccc3N3CCCCC3)CC2)cc1C 89.1 µM [inhibitor, partial curve, poor fit]
CNC(=O)c1ccc2nc(-c3ccco3)c(-c3ccco3)nc2c1 17.8 µM [inhibitor, full curve, poor fit]
COc1cc(C(=O)OCc2cc(=O)oc3c(C)c(C)ccc23)ccc1OC(F)F 56.2 µM [inhibitor, partial curve, poor fit]
COc1cccc2cc(C(=O)C3=C(O)C(=O)N(Cc4ccco4)C3c3cccnc3)oc12 (configuration not stated) 89.1 µM [inhibitor, single point]
CN(C)CC1CCC/C(=C\c2ccc(OC(=O)c3ccc(Cl)cc3)cc2)C1=O (configuration not stated) 89.1 µM [inhibitor, single point]
CCSc1nnc(NC(=O)c2nc(S(=O)(=O)Cc3ccc(F)cc3)ncc2Cl)s1 7.94 µM [inhibitor, full curve, poor fit]
CCCCC(=O)NC(c1ccc(Cl)cc1Cl)c1ccc2cccnc2c1O (configuration not stated) 31.6 µM [inhibitor, partial curve, poor fit]
CCc1ccc(NC(=O)C(C)Sc2nc(-c3ccco3)c(C#N)c(=O)[nH]2)cc1 (configuration not stated) 89.1 µM [inhibitor, single point]
CC(=O)C(C(C)=O)C1(O)C(=O)c2ccccc2C1=O 1.41 µM [inhibitor, full curve, poor fit]
CC(=O)N1CCc2c(sc(NC(=O)CN3C(=O)CCC3=O)c2C(N)=O)C1 28.2 µM [inhibitor, full curve, poor fit]
CC(C)=CCC/C(C)=C/C=C/C(C)=C/C=C/C(C)=C/C=C/C=C(C)/C=C/C=C(C)/C=C/C=C(\C)CCC=C(C)C 89.1 µM [inhibitor, single point]
Cc1ccc(NC(=S)NCc2ccccn2)cc1 100 µM [inhibitor, partial curve, poor fit]
Cc1cc(C)c(Cc2c(C)nc3c(C(=O)NCc4ccco4)cnn3c2C)c(C)c1 79.4 µM [inhibitor, single point]
COc1ccc(S(=O)(=O)N2CCC(C(=O)N[C@@H](C)C(=O)NC3CCCC3)CC2)cc1 39.8 µM [inhibitor, partial curve, poor fit]
CNC(=O)/C=C1\NC(C)(C)Cc2ccccc21 56.2 µM [inhibitor, partial curve, poor fit]
Cc1ccc(CN2CCN(/N=C/c3cc(Br)cc(Br)c3O)CC2)cc1 63.1 µM [inhibitor, partial curve, poor fit]
Cc1ccc(-n2[nH]c(C)c(/C=N/Nc3ccc([N+](=O)[O-])cc3[N+](=O)[O-])c2=O)cc1C 70.8 µM [inhibitor, partial curve]
CN1c2ccsc2C(O)=C(C(=S)Nc2ccccc2)S1(=O)=O 39.8 µM [inhibitor, partial curve]
Cc1ccc(S(=O)Cc2ccc(C(=O)NC3CCCCCC3)o2)cc1 (configuration not stated) 89.1 µM [inhibitor, single point]
CC(=O)OC1CC2C(C)(C)C(=O)C3OC3[C@]2(C)C2CC[C@@]3(C)C(c4ccoc4)OC(=O)C4OC43[C@]12C (some centres not stated) 39.8 µM [inhibitor, partial curve, poor fit]
CCCCn1c(NC(C)=O)c(C#N)c2nc3ccccc3nc21 79.4 µM [inhibitor, partial curve, poor fit]
CCN1C(=O)S/C(=C/c2c(OCc3ccc(C(=O)O)cc3)ccc3ccccc23)C1=O 89.1 µM [inhibitor, partial curve, poor fit]
Cc1cccc(CNc2nc(-c3ccoc3)nc3ccccc23)c1 44.7 µM [inhibitor, full curve]
NC(=O)NC(CC(=O)NCCc1ccc(S(N)(=O)=O)cc1)c1ccc(Cl)cc1 (configuration not stated) 28.2 µM [inhibitor, partial curve]
COc1ccccc1-c1cc(C(F)(F)F)nc(S(=O)(=O)CCCC(=O)Nc2ccc(F)c(Cl)c2)n1 7.94 µM [inhibitor, full curve, poor fit]
O=C(O)C(Cc1ccccc1)N1C(=O)/C(=C/c2cccnc2)SC1=S (configuration not stated) 79.4 µM [inhibitor, partial curve, poor fit]
Cc1[nH]c2ccccc2c1/C=C/c1nc2ccccc2c(=O)n1CCO 79.4 µM [inhibitor, single point]
Cc1[nH]c2ccccc2c(=O)c1C(=O)/C=C/c1ccccc1 39.8 µM [inhibitor, single point]
Cc1c(C)c2cc(Cl)c(OC(C)C(=O)NCCN3CCOCC3)cc2oc1=O (configuration not stated) 20 µM [inhibitor, partial curve, poor fit]

Potency, active:
CS(=O)(=O)C1=NSC2=NC(=O)/C(=C\c3ccc(OS(=O)(=O)c4ccccc4)cc3)C(=N)N21 35.5 µM
Nc1ccc(N2CCOCC2)c2nonc12 89.1 µM
CC(C)=CC[C@@H](O)C1=CC(=O)c2c(O)ccc(O)c2C1=O 1.78 µM
N#Cc1c([N+](=O)[O-])cc([N+](=O)[O-])cc1S(=O)(=O)Cc1ccccc1 39.8 µM
CC1=C(/C=C/C(C)=C\C=C\C(C)=C\C=C\C=C(C)\C=C\C=C(C)\C=C\C2=C(C)C[C@@H](O)CC2(C)C)C(C)(C)C[C@H](O)C1 39.8 µM
CC1=C(/C=C/C(C)=C/C=C/C(C)=C/C(=O)O)C(C)(C)CCC1 50.1 µM and 44.7 µM

Ordered by number of heavy atoms (high to low): part of the list above.
Potency, active:
CC1=C(/C=C/C(C)=C\C=C\C(C)=C\C=C\C=C(C)\C=C\C=C(C)\C=C\C2=C(C)C[C@@H](O)CC2(C)C)C(C)(C)C[C@H](O)C1 39.8 µM
N#Cc1c([N+](=O)[O-])cc([N+](=O)[O-])cc1S(=O)(=O)Cc1ccccc1 39.8 µM
CC1=C(/C=C/C(C)=C/C=C/C(C)=C/C(=O)O)C(C)(C)CCC1 50.1 µM and 44.7 µM

Three compounds picked at random from those above:
Potency, active:
N#Cc1c([N+](=O)[O-])cc([N+](=O)[O-])cc1S(=O)(=O)Cc1ccccc1 39.8 µM
CS(=O)(=O)C1=NSC2=NC(=O)/C(=C\c3ccc(OS(=O)(=O)c4ccccc4)cc3)C(=N)N21 35.5 µM
Nc1ccc(N2CCOCC2)c2nonc12 89.1 µM

Following part:

Max response, negative = inhibition, inactive:
COCCN(C(=O)COC(=O)/C=C/c1ccc2c(c1)OCO2)c1c(N)n(Cc2ccccc2)c(=O)[nH]c1=O -16.9%
CCOc1ccc(C(=O)N2CCc3cc(OC)c(OC)cc3C2)cc1OCC 4.13%
O=C(CSc1ccccc1)N1CCc2c([nH]c3ccccc23)C1c1ccc(Cl)cc1 (configuration not stated) -3.12%
CCOC(=O)N1CCN(CC(O)COc2ccc(C)c(C)c2)CC1 (configuration not stated) -0.986%
O=C(O)COc1ccccc1/C=N/NC(=O)C(O)c1ccccc1 (configuration not stated) -9.11%
COc1ccccc1C(=O)Nc1c(C(=O)N2CCN(c3ccccc3F)CC2)oc2ccccc12 0.475%
CN(C)c1cccc(C(=O)Nc2nc3ccc(S(=O)(=O)NC(C)(C)C)cc3s2)c1 8.63%
Cc1occc1C(=O)N1CCN(S(=O)(=O)c2ccc(F)cc2)CC1 0.481%
CC(=C\c1ccccc1)/C=C1/SC(=O)N(CCCC(=O)Nc2ccc(C(=O)O)cc2)C1=O -0.809%
Fc1ccc(Br)cc1C1C=C(c2ccc(Br)cc2)Nc2ncnn21 (configuration not stated) 4.98%
N#Cc1c(N)sc2c1CCN(C(=O)OCc1ccccc1)C2 -3.82%
CN(C)CCN(C(=O)c1ccc2c(c1)CCCC2)c1nc2c(F)cccc2s1 -21.7%
C[n+]1ccccc1/C=N\O 6.44%
